We go through one molecule from patent US20140186363A1.

No constants are given. Whether binding was seen depends on the method and setting.

In this test the target is DHFR. In words: ELISA, plates coated with recombinantly expressed antigen. On the technique in general: ELISA stands for enzyme-linked immunosorbent assay.

B1: 122G3 (antibody, V domains shown)
VH: QVQLVQSGAEVKKPGASVKVSCKASGYTFTNYAIHWVRQAPGQRLEWMGWINAGKGNTKYSQKFQGRVTITRDTSADTTYMELSSLRSEDTAVYFCAQAGLSSGLYRDYWGQGTPVTVSS
VL: EIVMTQSPATLSVSPGERATLSCRASQSVSSDLAWYQQKRGQAPRLLIYGASTRATGIPARFSGSGSGTEFTLTISSLQSEDFAVYWCQQYNDWPLTFGGGTKVEIN
Turning to B1, the binding entry is “no binding”.
